Experimental findings from the supplement of paper PMC8256030 are described below.

One experiment concerns HEK293T. Put plainly: percent viability (nuclei count) relative to control; higher = more viable cells. Conditions: 10 µM; 24 h.
The test system of experiment [1] is SARS-CoV-2 -1 PRF reporter mCherry-FSE-GFP(-1). Put plainly: mCherry (red) intensity as percent of control; higher = higher upstream reporter expression. The conditions noted are these: 10 µM; 24 h; HEK293T.
Experiment [2] has the same test system. Put plainly: percent effect, decrease of GFP/mCherry ratio (-1 PRF reporter) relative to controls; higher = stronger frameshift inhibition. The conditions noted are these: 10 µM; 24 h; HEK293T.

Several values for one entry are separate records, joined by “and”; a condition that tells them apart may be missing. Equal entries are not always repeated. Structures can show the parent of a compound that is named as a salt. ± gives the standard deviation of the averaged measurements. The list shows a part of the results. Repeats in this data set agree poorly, so a single value says little.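 HEK293T cells were given each compound shortly before transfection with a reporter in which red mCherry is followed by the SARS-CoV-2 frameshift element and then GFP in the −1 frame, so GFP appears only after frameshifting.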

In the case of `CNC(=O)Oc1ccccc1OC(C)C`, the percent viability in the experiment on HEK293T was 313%. In experiment [1], this compound had a mCherry of 105%. Besides, the percent effect in experiment [2] was -1.42%.
With `O=C(O)CCCO`, the percent viability with HEK293T was 170%. Moreover, the mCherry in experiment [1] stood at 93.5%. In addition, the percent effect in experiment [2] is -0.551%.
`COC(=O)C1=CCCN(C)C1`: the percent viability with HEK293T was 269%. The same compound showed a mCherry in experiment [1] of 98.2%. Further, the percent effect in experiment [2] was -0.905%.
Consider `Oc1ccc(Cl)cc1`, for which the percent viability in the experiment on HEK293T amounted to 149%. Besides, in experiment [1], the mCherry came to 121%. In experiment [2], the percent effect is -2.55%.
In the same order, the values of `O=C1CCCN1CC#CCN1CCCC1` [Oxotremorine] are 237%, 87.6% and -3.04%.
As for `COc1ccc(CN2CCNCC2)c(OC)c1OC` [trimetazidine], in the experiment on HEK293T, the percent viability is 320%. Besides, in experiment [1], the mCherry amounted to 107%. Besides, the percent effect in experiment [2] was -7.96%.
Consider `COc1ccc(O)c(C(C)(C)C)c1`, for which, in the experiment on HEK293T, the percent viability amounted to 167%. In experiment [1], this compound showed a mCherry of 109%. Moreover, the percent effect in experiment [2] is -9.87%.
Regarding `CCC(C)C(C)(COC(N)=O)COC(N)=O` (configuration not stated) [mebutamate], the percent viability with HEK293T was found to be 150%. This compound returned a mCherry in experiment [1] of 96.5%. Further, in experiment [2], the percent effect is -2.26%.
`CCC(C)(C)O`: in the experiment on HEK293T, the percent viability is 381%. Besides, the mCherry in experiment [1] is 102%. In experiment [2], the percent effect was -0.918%.
Take `NC(=O)CN1CCCC1=O` [piracetam]: in the experiment with HEK293T, the percent viability is 293%. Moreover, the mCherry in experiment [1] was determined as 75.2%. Moreover, the percent effect in experiment [2] was -2.87%.
Take `CN1C(=O)C(O)N=C(c2ccccc2)c2cc(Cl)ccc21` (configuration not stated) [temazepam]: the percent viability in the experiment with HEK293T was 34.8%. In addition, in experiment [1], the mCherry came out at 48.6%. In addition, in experiment [2], the percent effect is -5.21%.
As to `C[C@@H]1C[C@@]2(C)[C@@H](CC[C@@H]3[C@@H]2CC[C@]2(C)[C@@H](O)CC[C@@H]32)CC1=O` [drostanolone], the percent viability in the experiment on HEK293T is 258%. Further, the mCherry in experiment [1] was found to be 98.2%. In addition, the percent effect in experiment [2] was -3.69%.
`CC1NCCOC1c1ccccc1` (configuration not stated) [phenmetrazine]: the percent viability in the experiment with HEK293T came to 191%. Besides, the mCherry in experiment [1] was 87.4%. The percent effect in experiment [2] is -2.3%.
As for `CC(OC(N)=O)C(C)C(C)OC(N)=O` (configuration not stated) [pentabamate], the percent viability in the experiment on HEK293T was 50.2%. This compound also yielded a mCherry in experiment [1] of 85%. Also, in experiment [2], the percent effect is -4.58%.
In the case of `Nc1ccc([As](=O)(O)O)cc1` [arsanilic acid], the percent viability in the experiment with HEK293T was determined as 175%. For the same compound, the mCherry in experiment [1] was found to be 117%. The percent effect in experiment [2] is -5.63%.
With `CCCCCCCCCCCCCCCC[n+]1ccccc1` [cetylpyridinium chloride], in the experiment with HEK293T, the percent viability is 16.7%. In experiment [1], this compound gave a mCherry of 13.7%. Also, in experiment [2], the percent effect amounted to 0.627%.
Turning to `C#Cc1cncc([C@@H]2CCCN2C)c1` [altinicline], the percent viability with HEK293T was 304%. In experiment [1], this compound returned a mCherry of 61.2%. Also, the percent effect in experiment [2] is 1.38%.
As for `C[C@@H]1CN([C@H]2CC[C@](C#N)(c3ccc(F)cc3)CC2)CC[C@]1(C(=O)O)c1ccccc1` [levocabastine], the percent viability in the experiment with HEK293T came to 120%. Further, the mCherry in experiment [1] is 95.3%. Moreover, the percent effect in experiment [2] was -2.07%.
In the case of `c1ccc2c(c1)Nc1ccccc1S2` [phenothiazine], the percent viability in the experiment on HEK293T is 85.6%. Moreover, the mCherry in experiment [1] was 88.1%. Moreover, in experiment [2], the percent effect is -10.2%.
On to `C#C[C@]1(O)C=C[C@H]2[C@@H]3CCC4=CC(=O)CC[C@@H]4[C@H]3CC[C@@]21CC` [gestodene], for which, in the experiment on HEK293T, the percent viability was found to be 138 ± 10%. Also, the mCherry in experiment [1] turned out to be 117 ± 19%. For the same compound, the percent effect in experiment [2] turned out to be 0.59 ± 2.2%.
As for `CCCCOC(=O)c1ccccc1C(=O)OCCCC`, in the experiment on HEK293T, the percent viability was found to be 295%. The compound also gave a mCherry in experiment [1] of 91.1%. Besides, in experiment [2], the percent effect came out at 0.179%.
In the case of `N#Cc1ccc(N2CCN(C(=O)COc3ccc4[nH]cc(CCN)c4c3)CC2)cc1` [Donitriptan monohydrochloride], the percent viability with HEK293T was found to be 161%. The compound also gave a mCherry in experiment [1] of 107%. Besides, the percent effect in experiment [2] worked out at 1.88%.
Take `Oc1ccc2c3c1O[C@H]1c4[nH]c5ccccc5c4C[C@@]4(O)[C@@H](C2)N(CC2CC2)CC[C@]314` [Naltrindole·HCl]: the percent viability in the experiment on HEK293T was determined as 303%. For the same compound, the mCherry in experiment [1] is 71.2%. Further, the percent effect in experiment [2] was -2.11%.
With `CC[C@@]1([C@@H]2O[C@@H]([C@H]3O[C@@](O)(CO)[C@H](C)C[C@@H]3C)C[C@@H]2C)CC[C@H]([C@]2(C)CC[C@]3(C[C@H](O)[C@@H](C)[C@@H]([C@@H](C)[C@@H](OC)[C@H](C)C(=O)O)O3)O2)O1`, the percent viability in the experiment with HEK293T stood at 519%. This compound had a mCherry in experiment [1] of 110%. Besides, the percent effect in experiment [2] is -1.92%.
Take `O=[N+]([O-])O[C@@H]1CO[C@H]2[C@@H]1OC[C@@H]2O` [isosorbide mononitrate]: the percent viability in the experiment with HEK293T was found to be 187%. This compound came in with a mCherry in experiment [1] of 105%. Besides, the percent effect in experiment [2] is -1.89%.
In the same order, the values of `CC(C)N(CCC(C(N)=O)(c1ccccc1)c1ccccn1)C(C)C` (configuration not stated) [disopyramide] are 151%, 107% and -1.11%.
For `CCC(=O)O[C@H]1CC[C@H]2[C@@H]3CCC4=CC(=O)CC[C@]4(C)[C@H]3CC[C@]12C`, the percent viability in the experiment with HEK293T was 139%. For the same compound, the mCherry in experiment [1] is 73.3%. Also, the percent effect in experiment [2] came out at 1.75%.
For `CC(NC(C)(C)C)C(=O)c1cccc(Cl)c1` (configuration not stated) [bupropion], the percent viability with HEK293T is 302% and 245%. In experiment [1], the mCherry is 70.4% and 95.2%. The percent effect in experiment [2] is -1.34% and -3.43%.
As to `c1ccc(C2(N3CCCCC3)CCCCC2)cc1` [phencyclidine], the percent viability with HEK293T is 333%. In experiment [1], the mCherry turned out to be 96.7%. The percent effect in experiment [2] is -1.7%.
Regarding `COc1ccc(OC)c(C(O)C(C)NC(C)(C)C)c1` (configuration not stated) [butaxamine], the percent viability with HEK293T came to 161%. This compound also had a mCherry in experiment [1] of 93.1%. Further, the percent effect in experiment [2] is -4.5%.
Consider `CC(C)C[C@H](CN)CC(=O)O` [pregabalin], for which, in the experiment with HEK293T, the percent viability was 289%. The mCherry in experiment [1] was found to be 102%. In experiment [2], the percent effect is -2.49%.
On to `C[N+]1(C)[C@@H]2C[C@@H](OC(=O)[C@H](CO)c3ccccc3)C[C@H]1[C@@H]1O[C@@H]12` [Pamine], for which, in the experiment on HEK293T, the percent viability was 60.2%. In experiment [1], this compound gave a mCherry of 112%. For the same compound, the percent effect in experiment [2] was -1.87%.
Take `C[C@]12CCC(=O)C=C1C=C[C@@H]1[C@@H]2CC[C@@]2(C)[C@H]1CC[C@@]2(O)CCC(=O)O`: the percent viability with HEK293T stood at 160%. In experiment [1], this compound gave a mCherry of 113%. In addition, in experiment [2], the percent effect is -4.75%.
Take `C#CCN(C)[C@H](C)Cc1ccccc1` [(R)-(-)-Deprenyl·HCl]: the percent viability in the experiment on HEK293T was 251%. This compound also showed a mCherry in experiment [1] of 79.7%. For the same compound, in experiment [2], the percent effect is -2.82%.
